Results on six molecules are retold here after PMC13377174.

By UniProt entry, the sequences of proteins in these tests, tags left out.
UniProt P42859: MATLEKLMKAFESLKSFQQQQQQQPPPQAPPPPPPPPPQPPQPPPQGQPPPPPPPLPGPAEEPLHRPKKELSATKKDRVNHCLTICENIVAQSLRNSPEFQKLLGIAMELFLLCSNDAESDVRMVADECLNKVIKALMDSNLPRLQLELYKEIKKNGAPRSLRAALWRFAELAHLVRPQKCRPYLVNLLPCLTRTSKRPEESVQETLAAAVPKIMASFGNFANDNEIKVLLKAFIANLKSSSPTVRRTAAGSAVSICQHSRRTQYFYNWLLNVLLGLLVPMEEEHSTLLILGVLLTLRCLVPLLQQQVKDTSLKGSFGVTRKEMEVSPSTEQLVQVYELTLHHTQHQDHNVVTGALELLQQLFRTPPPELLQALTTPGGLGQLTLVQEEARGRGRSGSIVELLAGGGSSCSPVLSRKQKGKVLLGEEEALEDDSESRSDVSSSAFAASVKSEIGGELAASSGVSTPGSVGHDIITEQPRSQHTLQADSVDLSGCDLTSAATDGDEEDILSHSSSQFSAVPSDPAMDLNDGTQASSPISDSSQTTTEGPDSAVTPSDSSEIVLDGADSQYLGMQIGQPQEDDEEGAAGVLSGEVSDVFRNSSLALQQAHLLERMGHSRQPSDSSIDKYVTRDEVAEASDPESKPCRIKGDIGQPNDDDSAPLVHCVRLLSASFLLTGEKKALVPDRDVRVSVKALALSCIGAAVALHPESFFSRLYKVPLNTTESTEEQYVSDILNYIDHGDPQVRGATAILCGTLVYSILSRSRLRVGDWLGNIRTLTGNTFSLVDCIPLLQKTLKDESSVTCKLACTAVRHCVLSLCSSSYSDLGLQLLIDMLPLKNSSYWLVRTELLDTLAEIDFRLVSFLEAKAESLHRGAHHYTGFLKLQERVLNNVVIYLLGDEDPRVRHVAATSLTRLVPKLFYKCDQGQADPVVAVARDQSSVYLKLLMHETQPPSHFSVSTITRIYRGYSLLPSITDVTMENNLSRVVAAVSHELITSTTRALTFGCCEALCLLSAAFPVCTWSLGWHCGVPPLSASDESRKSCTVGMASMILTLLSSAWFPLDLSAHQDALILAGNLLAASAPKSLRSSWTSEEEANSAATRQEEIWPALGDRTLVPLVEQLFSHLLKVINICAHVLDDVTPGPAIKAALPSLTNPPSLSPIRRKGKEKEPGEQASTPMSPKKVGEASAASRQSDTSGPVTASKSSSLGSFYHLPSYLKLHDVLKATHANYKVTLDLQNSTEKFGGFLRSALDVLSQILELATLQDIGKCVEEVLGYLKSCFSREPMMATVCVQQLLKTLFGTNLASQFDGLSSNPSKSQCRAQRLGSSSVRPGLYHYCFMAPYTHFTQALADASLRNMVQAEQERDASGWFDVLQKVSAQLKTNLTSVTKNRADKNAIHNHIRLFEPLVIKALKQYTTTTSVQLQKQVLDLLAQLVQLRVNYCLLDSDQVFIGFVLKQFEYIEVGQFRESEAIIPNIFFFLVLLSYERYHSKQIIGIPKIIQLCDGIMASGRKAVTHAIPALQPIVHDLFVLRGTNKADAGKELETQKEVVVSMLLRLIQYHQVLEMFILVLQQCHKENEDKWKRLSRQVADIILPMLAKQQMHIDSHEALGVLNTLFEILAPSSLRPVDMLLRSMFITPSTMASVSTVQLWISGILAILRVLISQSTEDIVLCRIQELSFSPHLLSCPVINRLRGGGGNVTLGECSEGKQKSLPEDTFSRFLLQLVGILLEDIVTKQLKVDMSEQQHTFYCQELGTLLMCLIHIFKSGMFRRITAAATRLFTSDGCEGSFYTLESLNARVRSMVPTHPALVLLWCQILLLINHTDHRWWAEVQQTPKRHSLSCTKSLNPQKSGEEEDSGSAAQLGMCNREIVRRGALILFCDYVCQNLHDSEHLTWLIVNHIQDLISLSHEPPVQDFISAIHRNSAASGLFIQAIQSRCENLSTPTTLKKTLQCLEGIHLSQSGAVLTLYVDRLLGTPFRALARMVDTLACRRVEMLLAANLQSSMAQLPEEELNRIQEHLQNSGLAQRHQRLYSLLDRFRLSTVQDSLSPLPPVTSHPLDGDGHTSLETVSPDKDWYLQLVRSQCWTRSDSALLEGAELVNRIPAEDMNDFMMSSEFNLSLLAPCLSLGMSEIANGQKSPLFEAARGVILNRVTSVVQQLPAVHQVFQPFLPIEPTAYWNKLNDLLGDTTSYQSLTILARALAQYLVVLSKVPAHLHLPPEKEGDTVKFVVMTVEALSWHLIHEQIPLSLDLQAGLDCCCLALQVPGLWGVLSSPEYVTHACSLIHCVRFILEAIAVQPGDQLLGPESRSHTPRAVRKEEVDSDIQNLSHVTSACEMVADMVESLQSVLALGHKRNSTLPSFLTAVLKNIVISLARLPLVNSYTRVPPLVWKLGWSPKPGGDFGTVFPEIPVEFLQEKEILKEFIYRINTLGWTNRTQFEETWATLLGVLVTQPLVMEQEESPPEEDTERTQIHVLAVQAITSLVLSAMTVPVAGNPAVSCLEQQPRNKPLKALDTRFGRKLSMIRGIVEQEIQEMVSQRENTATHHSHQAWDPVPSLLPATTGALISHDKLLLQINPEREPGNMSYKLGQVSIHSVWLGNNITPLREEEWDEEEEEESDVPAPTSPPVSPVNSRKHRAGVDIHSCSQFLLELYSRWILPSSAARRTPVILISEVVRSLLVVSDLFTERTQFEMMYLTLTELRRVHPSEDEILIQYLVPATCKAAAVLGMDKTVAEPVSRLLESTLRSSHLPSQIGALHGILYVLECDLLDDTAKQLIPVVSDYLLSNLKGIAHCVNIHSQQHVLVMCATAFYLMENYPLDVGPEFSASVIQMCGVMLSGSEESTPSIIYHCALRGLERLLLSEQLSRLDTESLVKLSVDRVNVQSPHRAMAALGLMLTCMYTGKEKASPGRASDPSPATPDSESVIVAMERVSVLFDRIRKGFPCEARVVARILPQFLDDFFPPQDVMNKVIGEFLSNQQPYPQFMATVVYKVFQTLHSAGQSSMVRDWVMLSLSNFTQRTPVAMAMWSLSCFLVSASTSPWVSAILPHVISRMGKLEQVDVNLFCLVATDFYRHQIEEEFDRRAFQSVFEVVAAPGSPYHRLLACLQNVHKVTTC
UniProt P70388: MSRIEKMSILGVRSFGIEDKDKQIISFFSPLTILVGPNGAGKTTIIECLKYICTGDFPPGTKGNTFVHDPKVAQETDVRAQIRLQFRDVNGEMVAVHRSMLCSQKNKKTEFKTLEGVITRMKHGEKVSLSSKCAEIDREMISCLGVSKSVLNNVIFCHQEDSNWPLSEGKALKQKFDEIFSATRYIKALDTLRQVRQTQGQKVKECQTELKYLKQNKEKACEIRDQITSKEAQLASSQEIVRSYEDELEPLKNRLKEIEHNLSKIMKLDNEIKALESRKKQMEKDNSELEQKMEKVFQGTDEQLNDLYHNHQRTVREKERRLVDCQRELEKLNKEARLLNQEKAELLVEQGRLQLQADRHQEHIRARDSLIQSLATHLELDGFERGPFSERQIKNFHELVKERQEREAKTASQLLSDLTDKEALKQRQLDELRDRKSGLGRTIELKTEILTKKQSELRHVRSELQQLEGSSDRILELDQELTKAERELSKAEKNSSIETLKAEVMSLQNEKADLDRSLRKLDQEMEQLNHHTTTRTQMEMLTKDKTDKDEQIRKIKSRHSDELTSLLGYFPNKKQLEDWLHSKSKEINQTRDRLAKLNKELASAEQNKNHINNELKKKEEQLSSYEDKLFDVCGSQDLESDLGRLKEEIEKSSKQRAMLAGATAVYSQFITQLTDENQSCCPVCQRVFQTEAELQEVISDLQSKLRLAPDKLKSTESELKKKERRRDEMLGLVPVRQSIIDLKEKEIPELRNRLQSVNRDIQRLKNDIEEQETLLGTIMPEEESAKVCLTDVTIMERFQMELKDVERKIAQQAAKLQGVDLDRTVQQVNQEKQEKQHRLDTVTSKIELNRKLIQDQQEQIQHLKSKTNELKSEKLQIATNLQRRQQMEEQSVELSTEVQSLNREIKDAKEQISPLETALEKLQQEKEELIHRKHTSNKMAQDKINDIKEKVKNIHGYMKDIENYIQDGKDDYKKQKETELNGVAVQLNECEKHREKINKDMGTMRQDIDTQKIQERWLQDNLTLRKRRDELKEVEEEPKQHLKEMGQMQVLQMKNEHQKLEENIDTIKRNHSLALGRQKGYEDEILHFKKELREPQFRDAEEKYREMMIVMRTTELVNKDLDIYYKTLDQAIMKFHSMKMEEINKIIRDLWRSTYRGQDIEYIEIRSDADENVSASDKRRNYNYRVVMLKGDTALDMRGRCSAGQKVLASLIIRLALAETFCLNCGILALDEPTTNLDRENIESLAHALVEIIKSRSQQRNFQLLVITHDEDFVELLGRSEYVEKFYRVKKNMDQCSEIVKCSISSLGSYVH
UniProt Q62193: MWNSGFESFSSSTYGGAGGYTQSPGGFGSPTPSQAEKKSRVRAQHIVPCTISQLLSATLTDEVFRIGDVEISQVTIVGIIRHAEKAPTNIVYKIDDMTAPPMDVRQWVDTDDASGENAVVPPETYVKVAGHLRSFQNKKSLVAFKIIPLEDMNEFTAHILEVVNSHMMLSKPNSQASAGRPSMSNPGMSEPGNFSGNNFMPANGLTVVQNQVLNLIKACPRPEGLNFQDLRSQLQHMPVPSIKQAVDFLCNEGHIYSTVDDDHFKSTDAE
UniProt Q8VEE4: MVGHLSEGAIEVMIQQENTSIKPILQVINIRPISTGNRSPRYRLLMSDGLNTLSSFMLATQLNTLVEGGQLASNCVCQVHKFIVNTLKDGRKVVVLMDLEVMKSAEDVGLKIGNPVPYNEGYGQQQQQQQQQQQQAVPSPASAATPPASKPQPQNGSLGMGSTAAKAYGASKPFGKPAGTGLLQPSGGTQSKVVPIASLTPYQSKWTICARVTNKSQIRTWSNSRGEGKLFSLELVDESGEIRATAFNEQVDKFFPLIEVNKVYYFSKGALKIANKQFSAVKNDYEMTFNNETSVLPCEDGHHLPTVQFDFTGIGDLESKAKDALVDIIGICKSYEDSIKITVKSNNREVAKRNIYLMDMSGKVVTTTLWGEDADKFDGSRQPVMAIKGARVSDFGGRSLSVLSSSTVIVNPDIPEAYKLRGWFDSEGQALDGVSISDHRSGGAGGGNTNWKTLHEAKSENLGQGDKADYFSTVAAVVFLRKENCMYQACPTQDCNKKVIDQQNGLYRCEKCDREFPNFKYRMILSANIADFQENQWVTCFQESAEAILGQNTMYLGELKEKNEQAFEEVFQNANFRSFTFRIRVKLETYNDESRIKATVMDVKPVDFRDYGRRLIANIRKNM
UniProt Q9CQ71: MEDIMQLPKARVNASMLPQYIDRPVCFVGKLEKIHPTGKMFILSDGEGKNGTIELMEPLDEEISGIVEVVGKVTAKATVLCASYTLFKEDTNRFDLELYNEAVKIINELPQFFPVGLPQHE
UniProt P11103: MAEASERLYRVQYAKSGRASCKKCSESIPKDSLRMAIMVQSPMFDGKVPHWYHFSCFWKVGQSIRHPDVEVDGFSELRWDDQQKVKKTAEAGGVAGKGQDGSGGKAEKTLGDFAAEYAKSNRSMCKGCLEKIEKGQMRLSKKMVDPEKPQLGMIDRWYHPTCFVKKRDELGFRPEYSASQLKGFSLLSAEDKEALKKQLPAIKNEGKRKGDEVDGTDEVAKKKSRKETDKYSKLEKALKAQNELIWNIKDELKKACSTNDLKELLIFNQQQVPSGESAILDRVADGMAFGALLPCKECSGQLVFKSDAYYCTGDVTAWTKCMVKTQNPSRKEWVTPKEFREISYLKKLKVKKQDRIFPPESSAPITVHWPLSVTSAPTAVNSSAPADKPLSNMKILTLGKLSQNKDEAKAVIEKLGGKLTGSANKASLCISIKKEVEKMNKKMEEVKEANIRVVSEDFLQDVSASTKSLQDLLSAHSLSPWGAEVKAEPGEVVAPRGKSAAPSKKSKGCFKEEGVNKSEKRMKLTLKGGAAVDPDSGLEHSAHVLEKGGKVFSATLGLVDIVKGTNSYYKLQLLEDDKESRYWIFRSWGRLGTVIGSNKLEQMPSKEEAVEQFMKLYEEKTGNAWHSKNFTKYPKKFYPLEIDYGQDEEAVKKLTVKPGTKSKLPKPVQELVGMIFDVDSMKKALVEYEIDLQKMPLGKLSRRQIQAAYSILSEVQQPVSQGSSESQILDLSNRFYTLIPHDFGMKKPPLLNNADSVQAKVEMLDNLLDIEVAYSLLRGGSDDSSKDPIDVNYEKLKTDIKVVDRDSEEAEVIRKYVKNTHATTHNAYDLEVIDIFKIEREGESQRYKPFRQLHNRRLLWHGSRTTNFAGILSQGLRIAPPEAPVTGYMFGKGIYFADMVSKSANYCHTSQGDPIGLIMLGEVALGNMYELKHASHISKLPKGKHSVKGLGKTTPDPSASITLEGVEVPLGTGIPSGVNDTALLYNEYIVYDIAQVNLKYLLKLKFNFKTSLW

No constants are given. Whether binding was seen depends on the method and setting. In cells and extracts the contact can be indirect. Here binding means that the protein was enriched with, or labelled near, the bait; the list need not be complete.

Test [1] addresses huntingtin protein (normal, endogenous mouse) (mouse (endogenous in mouse brain tissue and NIH3T3)) (UniProt P42859). In words: affinity purification with mass spectrometry; IP-MS from NIH3T3 cell lysate, cells with endogenous Htt alone or overexpressing htt (26 CAG) or mhtt (51 CAG); anti-Htt antibody mixture on Dynabead Protein G, 18 h at 4 °C; DIA mass spectrometry, triplicate.

For test [2] the target is unchanged. The experiment in a line: affinity purification with mass spectrometry; IP-MS from brain tissue lysate of n = 3 WT and n = 3 HdhQ(150/150) mice; anti-Htt antibody mixture (MAB-2166, MAB-2168, MAB2170) on Dynabead Protein G, 18 h at 4 °C; DIA mass spectrometry; control IgG gave no pulldown products.

As for RAD50 (from UniProt P70388 1-1312), the binding result in test [1] was “binds weakly”.

Regarding “replication protein A protein RPA32 (from UniProt Q62193 1-270)”, in test [2], the binding entry is reported as “binds”.

As to “replication protein A protein RPA70 (from UniProt Q8VEE4 1-623)”, the binding entry in test [2] is “binds”.

For the molecule “replication protein A protein RPA14 (from UniProt Q9CQ71 1-121)”, the binding entry in test [2] was “binds”.

As for “Poly {ADP-ribose} polymerase (PARP1) (from UniProt P11103 1-1013)”, the binding result in test [2] and in test [1] was “binds” throughout.

B1: ligase 3 (protein, UniProt P97386 1-1015)
chain: MTLAFKILFPRNLCALGRKELCLFPEQNRWAAISQFSQWSETNLLGGCCLLQRRKPVLALQRGHLRPRATHLTFWPGSHVGLCTGPCAMAEQRFCVDYAKRGTAGCKKCKEKIVKGVCRIGKVVPNPFSESGGDMKEWYHIKCMFEKLERARATTKKIEDLTELEGWEELEDNEKEQISQHIADLSSKAAATPKKKAAVQAKLTTTGQVTSPVKGASFITSTNPRKFSGFSAAKPNNSEQAPSSPAPGTSLSASKCDPKHKDCLLREFRKLCAMVAENPSYNTKTQIIHDFLQKGSTGGFSDGFHGDVYLTVKLLLPGVIKSVYNLNDKQIVKLFSRIFNCNPDDMARDLEQGDVSETIRIFFEQSKSFPPAAKSLLTIQEVDAFLLHLSKLTKEDEQQQALQDIASRCTANDLKCIIRLIKHDLKMNSGAKHVLDALDPNAYEAFKASRNLQDVVERVLHNEQEVEKDPGRRRALRVQASLMTPVQPMLAEACKSIEYAMKKCPNGMFSEIKYDGERVQVHKKGDHFSYFSRSLKPVLPHKVAHFKDYIPKAFPGGQSMILDSEVLLIDNNTGKPLPFGTLGVHKKAAFQDANVCLFVFDCIYFNDVSLMDRPLCERRKFLHDNMVEIRNRIMFSEMKQVTKASDLADMINRVIREGLEGLVLKDVKGTYEPGKRHWLKVKKDYLNEGAMADTADLVVLGAFYGQGSKGGMMSIFLMGCYDPDSQKWCTVTKCAGGHDDATLARLQKELVMVKISKDPSKIPSWLKINKIYYPDFIVPDPKKAAVWEITGAEFSRSEAHTADGISIRFPRCTRIRDDKDWKSATNLPQLKELYQLSKDKADFAVVAGDEASPTTGGSSGENEGTAGSAGPCKGPPSKSSASAKTTEQKLNSPSSRGGIKPIPKHSPMKPGEKLAVKSSPVKVGMKRKATDETPCLKKVLLDVFTGVRLYLPPSTPDFKRLKRYFVAFDGDLVQEFDMGSATHVLGNREKNTDAQLVSSEWIWACIRKRRLIAPC
B1: the binding result in test [2] and in test [1] was “binds” each time.
